Results: PubChem BioAssay AID1347076 (National Center for Advancing Translational Sciences (NCATS), 2019)
The campaign covered roughly 400,000 compounds. About 13,000 (3.2%) were called active. Inconclusive means that the source gave no clear call. Such entries were picked first, then a sample of the others. The call rests on the fitted dose curve; in most records, active means well fitted cell-killing curve with a large enough effect; inconclusive means small, poorly fitted or top-dose-only effect, or effect the other way; inactive means flat fitted curve, though single readings scatter. Potencies of inconclusive entries are doubtful fits and often do not repeat.

Assay: qHTS assay for MDR1-selective chemotherapeutics: Primary screen using the drug-selected MDR subline cells KB-V1; further: nearly all actives have a fitted effect of over 60% in size
Settings: KB-V1 MDR cells viability, CellTiter-Glo, 72 h; activity change, negative = cytotoxicity: at 46.1 µM (top of the series)
Method in brief: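 Luminescent ATP read-out (CellTiter-Glo, 10 min) measures survival of drug-selected KB-V1 MDR cells after 72 h, 37 degrees C compound exposure. Medium: phenol-red-free DMEM, 10% FBS. Values from fitted concentration-response curves.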
On the % scale 0 is the no-effect control and ±100 the full control effect; potency means the concentration at half of the fitted maximal effect.

With `CCCc1nc2ccccc2c(=O)n1/N=C/c1ccccc1O` as the compound, how does the Potency read?
The Potency was active: 16.4 µM.

For `CC(C)CC[C@@H](O)[C@](C)(O)C1CC[C@@]2(O)C3=CC(=O)[C@@H]4C[C@@H](O)[C@@H](O)C[C@]4(C)C3CC[C@]12C` (stereo partly specified), which “activity change, negative = cytotoxicity” value is on record?
Its value is inactive: -6.44%.

With `CN=c1scc(-c2cc(OC)ccc2OC)n1/N=C/c1c(C)[nH]c2ccccc12` as the compound, how does the “activity change, negative = cytotoxicity” value read?
Its value is inactive: -15.5%.

Which “activity change, negative = cytotoxicity” value does the source give for `CCN(CC)S(=O)(=O)c1ccc2c(c1)c(=O)c(C(=O)N1CCN(c3ccc(OC)cc3)CC1)cn2C` here?
The value was inactive: 0%.

With `COc1cccc(-c2nn(-c3ccccc3)cc2C(=O)OCC(=O)Nc2ncc(Cl)cc2Cl)c1` as the compound, how does the Potency read?
Its Potency is inconclusive: 7.31 µM [cytotoxic, partial curve].

With `O=C(NCc1ccco1)C1CCCN(c2nnc(-n3cccc3)s2)C1` (stereo unspecified) as the compound, how does the “activity change, negative = cytotoxicity” value read?
Its value is inactive: -4.05%.

Which Potency does the source give for `O=C(N/N=C/c1cc(Cl)cc(Cl)c1O)c1ccncc1` here?
The Potency was inconclusive: 20.6 µM [cytotoxic, partial curve].

With `Cc1ccc(S(=O)(=O)N2CCN(CC(=O)Nc3ccccc3C(=O)NC3CC3)CC2)cc1` as the compound, how does the Potency read?
The Potency was inconclusive: 6.51 µM [cytotoxic, partial curve].

For `COc1ccc2cc1Oc1ccc(cc1)C[C@H]1c3c(cc4c(c3Oc3cc5c(cc3OC)CCN(C)[C@@H]5C2)OCO4)CCN1C`, which Potency is on record?
Its Potency is inconclusive: 8.2 µM [cytotoxic, partial curve].

Which Potency does the source give for `CCOC(=O)C1=C(C)NC(=O)NC1/C=C/c1ccccc1` (stereo unspecified) here?
The Potency was inconclusive: 23.1 µM [cytotoxic, partial curve, poor fit].

With `N#Cc1nc(-c2ccco2)oc1N1CCc2ccccc2C1` as the compound, how does the Potency read?
Its Potency is active: 8.2 µM.

With `COc1ccc(OC(C)C(=O)N(C)Cc2nc(-c3ccc(OC)cc3)no2)cc1` (stereo unspecified) as the compound, how does the Potency read?
The Potency was active: 18.4 µM.

For `CS(=O)(=O)N1CCN(c2ccc([N+](=O)[O-])c(N3CCOCC3)c2)CC1`, which Potency is on record?
The Potency was inconclusive: 18.4 µM [cytotoxic, single point].

Which Potency does the source give for `COc1cccc(CCC(=O)O)c1OC` here?
The Potency was inconclusive: 25.9 µM [rising, single point].

Which Potency does the source give for `CC(=O)c1c(C)[nH]c(C(=O)CSc2nnc(-c3ccco3)n2Cc2ccccc2)c1C` here?
Its Potency is active: 18.4 µM.

For `Cc1ccc2oc(C(=O)NCC(c3ccc(Cl)cc3)N3CCOCC3)c(C)c2c1` (stereo unspecified), which “activity change, negative = cytotoxicity” value is on record?
The value was inactive: -28.5%.

For `O=C(CSc1ccccc1)Nc1nccs1`, which Potency is on record?
The Potency was inconclusive: 29.1 µM [rising, single point].

For `Cc1ccc(CCN2C(=O)CCC2(C)C(=O)NC2CCCC2)cc1` (stereo unspecified), which “activity change, negative = cytotoxicity” value is on record?
Its value is inactive: 8.3%.

For `COc1ccc(-n2nc3c(c2NC(=O)c2ccc(Br)o2)CS(=O)(=O)C3)cc1`, which Potency is on record?
The Potency was inconclusive: 18.4 µM [cytotoxic, partial curve, poor fit].

Which Potency does the source give for `COCCCNC(=O)CCCn1c(=O)c2ccccc2n(CC(=O)Nc2c(C)cc(C)cc2C)c1=O` here?
The Potency was inconclusive: 29.1 µM [rising, single point].

For `Cn1c(=O)c(=O)n(C)c2cc(S(=O)(=O)CCC(=O)Nc3ccccc3C(F)(F)F)ccc21`, which Potency is on record?
The Potency was inconclusive: 23.1 µM [rising, single point].

Which “activity change, negative = cytotoxicity” value does the source give for `CCCCN1C=C(C(=O)OC)C(c2ccccc2Cl)C(C(=O)OC)=C1` here?
The value was inactive: 3.64%.

Which Potency does the source give for `COc1cc(C(N)=O)cc(Cl)c1OCc1ccccc1` here?
The Potency was inconclusive: 23.1 µM [cytotoxic, partial curve, poor fit].

For `CC(C)c1ccc(C(=O)NCc2ccc(Cl)cc2)cc1`, which Potency is on record?
The Potency was inconclusive: 23.1 µM [cytotoxic, partial curve, poor fit].

Which Potency does the source give for `O=C1c2ccccc2C(=O)N1CSc1nnc2c3ccccc3n(CCc3ccccc3)c2n1` here?
Its Potency is inconclusive: 11.6 µM [cytotoxic, partial curve].

Which “activity change, negative = cytotoxicity” value does the source give for `Cc1ccc(-c2c[nH]c(=S)n2-c2ccccc2F)cc1` here?
Its value is inactive: -17.6%.

Which Potency does the source give for `CSc1ccccc1OCc1cc(C(=O)NCCC2=CCCCC2)no1` here?
Its Potency is active: 23.1 µM.

Which Potency does the source give for `CC(C)C(C(=O)NCC1CCCO1)N(C(=O)CNS(=O)(=O)c1ccccc1)C1CCCCC1` (stereo unspecified) here?
Its Potency is inconclusive: 11.6 µM [cytotoxic, partial curve, poor fit].

With `COc1ccc(S(=O)(=O)Cc2ccc(C(=O)NCc3ccccc3OC)o2)cc1` as the compound, how does the “activity change, negative = cytotoxicity” value read?
The value was inactive: -18.1%.

For `COc1ccc(Cc2nnc(SC(C)C(=O)Nc3ccc(F)cc3Cl)o2)cc1` (stereo unspecified), which Potency is on record?
The Potency was inconclusive: 16.4 µM [cytotoxic, single point].

Which “activity change, negative = cytotoxicity” value does the source give for `CN(Cc1ccccc1)C(=O)CCCn1c(=O)c2cccn2c2cccnc21` here?
The value was inactive: -10.8%.

For `Cc1cc(C(=O)Nc2nnc(C3CC3)s2)c(C)s1`, which “activity change, negative = cytotoxicity” value is on record?
Its value is inactive: -22.1%.

With `S=C(SSC(=S)N1CCOCC1)N1CCOCC1` as the compound, how does the “activity change, negative = cytotoxicity” value read?
The value was inactive: -1.14%.

Which “activity change, negative = cytotoxicity” value does the source give for `CC1=C/C(=C(/c2ccc(O)c(C)c2)c2ccccc2S(=O)(=O)O)C=CC1=O` here?
The value was inactive: 29.9%.

Which Potency does the source give for `Cn1cccc1C(=O)OCC(=O)c1ccc(Br)s1` here?
Its Potency is inconclusive: 18.4 µM [cytotoxic, single point].

Which Potency does the source give for `O=C1COc2ccc(C(=O)COC(=O)/C=C/c3ccc(Br)o3)cc2N1` here?
Its Potency is inconclusive: 20.6 µM [cytotoxic, partial curve].
